According to the supplement of paper PMC10331698:
± gives the standard deviation of the averaged measurements. Small differences around the control level are noise.

Legend:
Assay in all cases: level (log10 ratio to DMSO vehicle control); higher = higher biomarker level / cell amount than vehicle control
[1] = compound: C=C(C)C(=O)OCC(F)(F)C(F)(F)C(F)(F)C(F)(F)C(F)(F)C(F)(F)C(F)(F)F; conditions: in DMSO
Description: (§1)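 BioMAP Diversity Plus panel of 12 human primary cell co-culture systems (3C, 4H, LPS, SAg, BT, BF4T, BE3C, CASM3C, HDF3CGF, KF3CT, MyoF, Mphg). Compounds were added 1 h before stimulation and left for 24 h (MyoF 48 h; BT 72 h for soluble read-outs or 6 d for IgG). Biomarkers were read by ELISA, cytotoxicity by SRB, PBMC viability and proliferation by Alamar Blue. Each well value was divided by the mean of 8 DMSO control wells on the same plate and log10 transformed; duplicate blinded samples were tested at 4 concentrations.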

[2] = compound: C=CC(=O)OCC(F)(F)C(F)(F)C(F)(F)C(F)(F)C(F)(F)C(F)(F)C(F)(F)F [1H,1H-Perfluorooctyl acrylate]; conditions: 2200 nM; in DMSO
Description: as §1

[3] = compound: C=CC(F)(F)C(F)(F)C(F)(F)C(F)(F)C(F)(F)C(F)(F)C(F)(F)C(F)(F)C=C [1,8-Divinylperfluorooctane]; conditions: in DMSO
Description: as §1

[4] = compound: COC(=O)C(F)(F)C(F)(F)OC(F)(C(F)(F)F)C(F)(F)OC(F)=C(F)F [Methyl perfluoro(3-(1-ethenyloxypropan-2-yloxy)propanoate)]; conditions: in DMSO
Description: as §1

[5] = compound: CO[Si](C)(CCC(F)(F)C(F)(F)C(F)(F)C(F)(F)C(F)(F)C(F)(F)F)OC [Dimethoxymethyl((perfluorohexyl)ethyl)silane]; conditions: in DMSO
Description: as §1

[6] = compound: FC(F)(F)C(F)(F)C(F)(F)CC1CO1 [1H,1H-Heptafluorobutyl epoxide]; conditions: 2200 nM; in DMSO
Description: as §1

Heptafluorobutyl iodide = compound: FC(F)(F)C(F)(F)C(F)(F)CI [Heptafluorobutyl iodide]; conditions: 2200 nM; in DMSO
Description: as §1

[7] = compound: NC(=O)C(F)(F)C(F)(F)C(F)(F)C(F)F; conditions: in DMSO
Description: as §1

Pentafluoropropionamide = compound: NC(=O)C(F)(F)C(F)(F)F [Pentafluoropropionamide]; conditions: 2200 nM; in DMSO
Description: as §1

[8] = compound: NS(=O)(=O)C(F)(F)C(F)(F)C(F)(F)C(F)(F)C(F)(F)C(F)(F)C(F)(F)C(F)(F)F [Perfluorooctanesulfonamide]; conditions: in DMSO
Description: as §1

[9] = compound: O=C(O)C(F)(F)C(F)(F)C(F)F [4H-Perfluorobutanoic acid]; conditions: in DMSO
Description: as §1

[10] = compound: O=P(O)(O)CCC(F)(F)C(F)(F)C(F)(F)C(F)(F)C(F)(F)C(F)(F)F [2-(Perfluorohexyl)ethylphosphonic acid]; conditions: 2200 nM; in DMSO
Description: as §1

[11] = compound: O=S(=O)(F)C(F)(F)C(F)(F)C(F)(F)C(F)(F)C(F)(F)C(F)(F)C(F)(F)C(F)(F)F [Perfluorooctanesulfonyl fluoride]; conditions: 2200 nM; in DMSO
Description: as §1

[12] = compound: O=S(=O)(O)C(F)(F)C(F)(F)C(F)(F)C(F)(F)C(F)(F)C(F)(F)C(F)(F)C(F)(F)F [Perfluorooctanesulfonic acid]; conditions: 2200 nM; in DMSO
Description: as §1

[13] = compound: O=S(=O)(O)C(F)(F)C(F)(F)C(F)(F)C(F)(F)C(F)(F)C(F)(F)C(F)(F)C(F)(F)F [Potassium perfluorooctanesulfonate]; conditions: 2200 nM; in DMSO
Description: as §1

[14] = compound: O=S(=O)(OCC(F)(F)F)C(F)(F)C(F)(F)C(F)(F)C(F)(F)F [2,2,2-Trifluoroethyl perfluorobutanesulfonate]; conditions: 2200 nM; in DMSO
Description: as §1

[15] = compound: OCC(F)(F)C(F)(F)C(F)(F)C(F)(F)C(F)(F)C(F)F [1H,1H,7H-Dodecafluoro-1-heptanol]; conditions: 2200 nM; in DMSO
Description: as §1

[16] = compound: OCCCCC(F)(F)C(F)(F)C(F)(F)C(F)(F)F [4:4 Fluorotelomer alcohol]; conditions: 2200 nM; in DMSO
Description: as §1

Test System	level (log10) ([1]; 740 nM)	level (log10) ([1]; 2200 nM)	level (log10) [2]	level (log10) ([3]; 740 nM)	level (log10) ([3]; 2200 nM)	level (log10) ([4]; 740 nM)	level (log10) ([4]; 2200 nM)	level (log10) ([5]; 740 nM)	level (log10) ([5]; 2200 nM)	level (log10) [6]	level (log10) (Heptafluorobutyl iodide)	level (log10) ([7]; 2200 nM)	level (log10) ([7]; 6700 nM)	level (log10) ([7]; 20000 nM)	level (log10) ([7]; 60000 nM)	level (log10) (Pentafluoropropionamide)	level (log10) ([8]; 2200 nM)	level (log10) ([8]; 6700 nM)	level (log10) ([8]; 20000 nM)	level (log10) ([9]; 2200 nM)	level (log10) ([9]; 6700 nM)	level (log10) ([9]; 20000 nM)	level (log10) ([9]; 60000 nM)	level (log10) [10]	level (log10) [11]	level (log10) [12]	level (log10) [13]	level (log10) [14]	level (log10) [15]	level (log10) [16]
BF4T:MMP-3	0.0105 ± 0.033	-0.003 ± 0.0099	-0.004 ± 0.011	0.014 ± 0.047	0.003 ± 0.0071	-0.008 ± 0.031	-0.005 ± 0.034	0.01 ± 0.028	-0.0085 ± 0.012	0.0165 ± 0.018	0.0085 ± 0.043	0.013 ± 0.05	0.01 ± 0.033	-0.005 ± 0.047	0.0075 ± 0.047	-0.002 ± 0.013	0.0145 ± 0.028	0.004 ± 0.024	0.0845 ± 0.028	-0.007 ± 0.025	-0.0025 ± 0.012	-0.014 ± 0.02	-0.007 ± 0.023	-0.0045 ± 0.046	0.0045 ± 0.019	0.019 ± 0.076	0.0335 ± 0.0078	0.007 ± 0.0028	0.0065 ± 0.043	0.0415 ± 0.0021
SAg:SRB	0.023 ± 0.0071	0.015 ± 0.014	0.0045 ± 0.011	0.008 ± 0.011	0.0145 ± 0.0064	-0.002 ± 0.0071	0.005	0.008 ± 0.0042	0.011 ± 0.0042	0.0025 ± 0.021	0.013 ± 0.0042	-0.0175 ± 0.0078	-0.0225 ± 0.0035	-0.02 ± 0.0028	-0.015 ± 0.021	0.011 ± 0.0057	0.019 ± 0.0099	0.0065 ± 0.005	-0.0515 ± 0.0064	-0.01 ± 0.0014	-0.0055 ± 0.0078	-0.0145 ± 0.0021	0 ± 0.0028	-0.0055 ± 0.00071	0 ± 0.0014	-0.012 ± 0.014	-0.004 ± 0.0099	0.0085 ± 0.011	-0.0135 ± 0.0064	-0.003 ± 0.018
lMphg:CCL2/MCP-1	0.0185 ± 0.052	-0.0135 ± 0.03	0.002 ± 0.034	0.0055 ± 0.035	-0.004 ± 0.011	-0.013	-0.006 ± 0.024	-0.003 ± 0.024	-0.019 ± 0.0014	0.004 ± 0.018	0.0025 ± 0.015	0.0205 ± 0.054	0.004	-0.0065 ± 0.012	0.0255 ± 0.018	0.015 ± 0.027	0.001 ± 0.068	-0.032 ± 0.016	-0.0485 ± 0.046	-0.01 ± 0.044	-0.024 ± 0.027	-0.0125 ± 0.0035	0.0005 ± 0.021	0.0175 ± 0.029	-0.0165 ± 0.016	0.0055 ± 0.023	0.0135 ± 0.016	-0.0175 ± 0.021	0.016 ± 0.057	-0.005 ± 0.048
KF3CT:MMP-9	0.0085 ± 0.056	0.01 ± 0.037	-0.0305 ± 0.022	-0.011 ± 0.0042	-0.0305 ± 0.00071	-0.032 ± 0.016	-0.0145 ± 0.005	-0.025 ± 0.0099	-0.0245 ± 0.015	-0.026 ± 0.04	-0.004 ± 0.052	0.003 ± 0.013	-0.0095 ± 0.013	0.002 ± 0.025	0.0125 ± 0.023	-0.027 ± 0.023	0.0135 ± 0.033	0.0365 ± 0.026	-0.274 ± 0.023	-0.0335 ± 0.032	-0.024 ± 0.055	-0.0395 ± 0.012	-0.0775 ± 0.00071	-0.0125 ± 0.012	-0.018 ± 0.024	-0.0035 ± 0.0021	0.0035 ± 0.0092	-0.0165 ± 0.005	0.0125 ± 0.0035	0.002 ± 0.021
